# Counter-ions that a name gives are not always drawn. Some of the results follow. Single values are uncertain here, since repeats match poorly.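 Human fetal ventral-midbrain neural progenitor line ReNCell VM, differentiated without mitogens. Images stained for doublecortin (early neurons) or tyrosine hydroxylase (dopaminergic neurons) were scored by blinded raters against untreated wells (0 = no change). Repeats and both raters were averaged, and compounds averaging 2 or higher were picked as hits for retesting.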
# What was measured:
# [1] = test system: ReNCell VM; test: neuronal differentiation score (DCX+ cell fraction vs untreated, manual image score) (score (-3 to 3)); higher = more neuronal differentiation; conditions: 2 uM, 2 weeks
# [2] = test system: ReNCell VM; test: dopaminergic neuron differentiation score (TH+ cell fraction vs untreated, manual image score) (score (0 to 3)); higher = more TH+ dopaminergic neuron differentiation; conditions: 2 uM, 4 weeks, BDNF 10 ng/ml + GDNF 10 ng/ml
smiles,measurement,setting,value
"Ic1ccc(N2CCN(Cc3c[nH]c4ncccc34)CC2)cc1 [L-750,667 trihydrochloride]",neuronal differentiation score,[1]; library: LOPAC,inactive: 0
same,dopaminergic neuron differentiation score,[2]; library: LOPAC,inactive: 0
"O=C(O)CCC(C(=O)O)N1C(=O)c2ccccc2C1=O [L-Glutamic acid, N-phthaloyl-]",neuronal differentiation score,[1]; library: LOPAC,inactive: 0
same,dopaminergic neuron differentiation score,[2]; library: LOPAC,inactive: 0
c1ccc2nc(C3=NCCN3)cnc2c1 [BU 239 hydrochloride],neuronal differentiation score,[1]; library: Tocriscreen,inactive: 0
same,dopaminergic neuron differentiation score,[2]; library: Tocriscreen,inactive: 0
CC(=O)O[C@H]1CC[C@@]2(C)[C@H](CC[C@@H]3[C@@H]2CC[C@]2(C)[C@@H]4[C@H](C[C@@H]32)O[C@]2(CC[C@@H](C)CO2)[C@H]4C)C1,neuronal differentiation score,[1]; library: Spectrum,inactive: 0
same,dopaminergic neuron differentiation score,[2]; library: Spectrum,inactive: 0
Nc1nc(=O)[nH]cc1F,neuronal differentiation score,[1]; library: Spectrum,inactive: 0
same,dopaminergic neuron differentiation score,[2]; library: Spectrum,inactive: 0
NC(=O)c1ccc([N+](=O)[O-])cc1Cl,neuronal differentiation score,[1]; library: Spectrum,inactive: 0
same,dopaminergic neuron differentiation score,[2]; library: Spectrum,inactive: 0
CO[C@@]1(NC(=O)CSCC#N)C(=O)N2C(C(=O)O)=C(CSc3nnnn3C)CS[C@@H]21 [Cefmetazole sodium salt],neuronal differentiation score,[1]; library: Prestwick,inactive: 0
same,dopaminergic neuron differentiation score,[2]; library: Prestwick,inactive: 0
COc1ccc2c(C)cc(=O)oc2c1,neuronal differentiation score,[1]; library: Spectrum,inactive: 0
same,dopaminergic neuron differentiation score,[2]; library: Spectrum,inactive: 0
O=Nc1c(-c2c(O)[nH]c3ccccc23)[nH]c2ccccc12 [Indirubin-3'-oxime],neuronal differentiation score,[1]; library: Tocriscreen,active: 3
same,dopaminergic neuron differentiation score,[2]; library: Tocriscreen,inactive: 0
OC[C@H]1O[C@@H](n2cnc3c(N[C@H]4CC5CCC4C5)ncnc32)[C@H](O)[C@@H]1O (some centres undefined),neuronal differentiation score,[1]; library: LOPAC,inactive: 1
same,dopaminergic neuron differentiation score,[2]; library: LOPAC,inactive: 0
Cc1cc(OC(=O)c2c(C)cc(O)cc2O)cc(O)c1C(=O)O [lecanoric acid],neuronal differentiation score,[1]; library: Natural,inactive: 0
same,dopaminergic neuron differentiation score,[2]; library: Natural,inactive: 0
N[C@H](CO)C(=O)O [D-Serine],neuronal differentiation score,[1]; library: LOPAC,inactive: 0
same,dopaminergic neuron differentiation score,[2]; library: LOPAC,inactive: 0

# Quoted at random: 2 records from the list
smiles,measurement,setting,value
Cc1cc(OC(=O)c2c(C)cc(O)cc2O)cc(O)c1C(=O)O [lecanoric acid],dopaminergic neuron differentiation score,[2]; library: Natural,inactive: 0
c1ccc2nc(C3=NCCN3)cnc2c1 [BU 239 hydrochloride],dopaminergic neuron differentiation score,[2]; library: Tocriscreen,inactive: 0

# Source: the supplement of paper PMC4635364
